Amino acid sequences for entries named in this document (tags omitted). A change or cut given only in a name is not applied to a line headed by its entry. Chains listed by the source or under a name are the forms on record and can include a tag or linker.
endogenous DPP9 (dipeptidyl peptidase 9) (Q86TI2-2, form named): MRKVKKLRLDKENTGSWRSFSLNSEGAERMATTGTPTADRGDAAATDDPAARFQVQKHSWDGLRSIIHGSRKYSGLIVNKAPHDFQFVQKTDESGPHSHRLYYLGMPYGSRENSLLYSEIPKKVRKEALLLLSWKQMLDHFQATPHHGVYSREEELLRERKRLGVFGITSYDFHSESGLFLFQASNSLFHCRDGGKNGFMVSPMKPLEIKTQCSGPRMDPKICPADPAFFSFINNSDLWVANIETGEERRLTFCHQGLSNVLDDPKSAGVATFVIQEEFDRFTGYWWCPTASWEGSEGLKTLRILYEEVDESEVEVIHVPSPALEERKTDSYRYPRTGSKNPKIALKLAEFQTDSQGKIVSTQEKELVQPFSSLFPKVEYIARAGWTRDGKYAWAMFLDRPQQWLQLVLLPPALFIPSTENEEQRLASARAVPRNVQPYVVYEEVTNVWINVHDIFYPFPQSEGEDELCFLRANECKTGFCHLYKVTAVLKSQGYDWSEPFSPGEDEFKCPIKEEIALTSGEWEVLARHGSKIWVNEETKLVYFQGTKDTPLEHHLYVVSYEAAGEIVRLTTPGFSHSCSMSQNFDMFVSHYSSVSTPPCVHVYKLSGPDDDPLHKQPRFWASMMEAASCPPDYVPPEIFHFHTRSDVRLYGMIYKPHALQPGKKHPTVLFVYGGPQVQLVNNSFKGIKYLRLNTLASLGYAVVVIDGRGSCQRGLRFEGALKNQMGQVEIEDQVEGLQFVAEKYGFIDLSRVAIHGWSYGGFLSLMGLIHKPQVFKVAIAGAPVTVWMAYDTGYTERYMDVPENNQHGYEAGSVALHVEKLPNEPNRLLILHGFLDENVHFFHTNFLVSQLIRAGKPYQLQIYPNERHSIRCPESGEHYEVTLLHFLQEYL

According to paper doi:10.1101/260919:

Tests used:
Assay in all cases: affinity purification with mass spectrometry
[1] = target: T1, NLRP1 a.a. 1213-1373 (carboxy-terminal fragment of the FIIND domain) (human) (UniProt Q9C000)
T1 sequence: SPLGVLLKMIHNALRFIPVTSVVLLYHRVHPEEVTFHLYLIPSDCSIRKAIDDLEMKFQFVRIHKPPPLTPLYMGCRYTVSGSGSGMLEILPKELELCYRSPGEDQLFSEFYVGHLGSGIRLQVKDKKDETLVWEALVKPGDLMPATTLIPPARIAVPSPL

[2] = target: T2, FLAG-tagged full-length NLRP1 (human) (UniProt Q9C000)
T2 sequence: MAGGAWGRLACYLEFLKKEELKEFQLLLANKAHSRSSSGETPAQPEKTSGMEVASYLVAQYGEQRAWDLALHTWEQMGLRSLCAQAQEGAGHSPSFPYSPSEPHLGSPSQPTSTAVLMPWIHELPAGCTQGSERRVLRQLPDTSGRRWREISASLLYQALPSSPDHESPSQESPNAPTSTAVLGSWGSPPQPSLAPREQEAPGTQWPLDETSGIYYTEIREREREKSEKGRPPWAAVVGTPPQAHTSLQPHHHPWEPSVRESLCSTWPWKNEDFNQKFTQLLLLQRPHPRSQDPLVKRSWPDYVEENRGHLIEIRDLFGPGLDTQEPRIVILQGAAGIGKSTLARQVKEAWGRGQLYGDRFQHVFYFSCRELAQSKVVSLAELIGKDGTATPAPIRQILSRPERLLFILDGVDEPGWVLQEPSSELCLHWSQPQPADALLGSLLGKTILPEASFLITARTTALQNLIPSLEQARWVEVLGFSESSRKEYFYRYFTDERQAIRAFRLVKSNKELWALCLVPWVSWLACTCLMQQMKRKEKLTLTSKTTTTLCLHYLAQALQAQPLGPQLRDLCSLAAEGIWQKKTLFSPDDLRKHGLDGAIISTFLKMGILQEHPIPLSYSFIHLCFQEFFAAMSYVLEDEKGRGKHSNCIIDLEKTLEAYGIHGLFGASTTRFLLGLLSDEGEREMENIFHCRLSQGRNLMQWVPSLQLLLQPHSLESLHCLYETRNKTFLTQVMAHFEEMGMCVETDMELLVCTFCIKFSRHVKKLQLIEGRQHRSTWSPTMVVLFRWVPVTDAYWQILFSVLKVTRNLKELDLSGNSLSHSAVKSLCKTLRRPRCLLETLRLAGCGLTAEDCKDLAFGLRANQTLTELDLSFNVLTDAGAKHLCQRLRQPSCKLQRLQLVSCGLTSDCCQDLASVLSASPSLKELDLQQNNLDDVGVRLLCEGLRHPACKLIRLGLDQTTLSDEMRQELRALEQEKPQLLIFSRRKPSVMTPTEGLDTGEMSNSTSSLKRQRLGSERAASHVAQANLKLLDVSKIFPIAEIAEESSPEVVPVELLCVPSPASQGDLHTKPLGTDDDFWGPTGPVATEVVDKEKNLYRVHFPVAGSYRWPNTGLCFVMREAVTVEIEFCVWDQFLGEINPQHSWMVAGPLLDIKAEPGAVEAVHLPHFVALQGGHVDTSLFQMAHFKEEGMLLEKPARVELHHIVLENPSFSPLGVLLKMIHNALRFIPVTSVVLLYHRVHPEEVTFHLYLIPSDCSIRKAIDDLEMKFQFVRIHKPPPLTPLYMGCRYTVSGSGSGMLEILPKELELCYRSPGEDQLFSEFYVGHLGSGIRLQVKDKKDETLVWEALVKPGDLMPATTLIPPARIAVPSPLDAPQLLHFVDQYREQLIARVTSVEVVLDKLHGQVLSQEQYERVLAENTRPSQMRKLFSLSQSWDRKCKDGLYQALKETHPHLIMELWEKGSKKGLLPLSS

[3] = target: T3, NLRP1 a.a. 1213-1474 (constitutively active auto-proteolytic fragment) (human) (UniProt Q9C000)
T3 sequence: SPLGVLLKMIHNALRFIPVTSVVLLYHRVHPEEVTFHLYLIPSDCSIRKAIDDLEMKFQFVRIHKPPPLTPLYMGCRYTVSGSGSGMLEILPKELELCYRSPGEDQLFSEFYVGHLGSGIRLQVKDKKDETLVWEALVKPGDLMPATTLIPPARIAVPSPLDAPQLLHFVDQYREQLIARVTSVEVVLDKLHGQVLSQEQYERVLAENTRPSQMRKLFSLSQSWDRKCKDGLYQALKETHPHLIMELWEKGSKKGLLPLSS

binding [1]: no binding
binding [2]: binds
binding [3]: no binding
Substance: endogenous DPP9 (dipeptidyl peptidase 9) (from UniProt Q86TI2-2 1-892) (enzyme)

Results are given in words; binding and its absence hold for the method and conditions named. In cells and extracts the contact can be indirect. These calls come from enrichment with a bait or labelling near it, and not all partners need be listed. For part of these data: A no says only that the protein was not detected with the bait. For part of these data: Where a sequence is shown, tags or fusion partners need not be part of it.
